# Assay results published in PubChem BioAssay AID2551 (National Center for Advancing Translational Sciences (NCATS), 2010).
# Chains of the proteins cited; added tags and fusions are not shown. Lines headed by an entry give the natural chain unless they say otherwise; changes in a name come on top.
# UniProt P51450: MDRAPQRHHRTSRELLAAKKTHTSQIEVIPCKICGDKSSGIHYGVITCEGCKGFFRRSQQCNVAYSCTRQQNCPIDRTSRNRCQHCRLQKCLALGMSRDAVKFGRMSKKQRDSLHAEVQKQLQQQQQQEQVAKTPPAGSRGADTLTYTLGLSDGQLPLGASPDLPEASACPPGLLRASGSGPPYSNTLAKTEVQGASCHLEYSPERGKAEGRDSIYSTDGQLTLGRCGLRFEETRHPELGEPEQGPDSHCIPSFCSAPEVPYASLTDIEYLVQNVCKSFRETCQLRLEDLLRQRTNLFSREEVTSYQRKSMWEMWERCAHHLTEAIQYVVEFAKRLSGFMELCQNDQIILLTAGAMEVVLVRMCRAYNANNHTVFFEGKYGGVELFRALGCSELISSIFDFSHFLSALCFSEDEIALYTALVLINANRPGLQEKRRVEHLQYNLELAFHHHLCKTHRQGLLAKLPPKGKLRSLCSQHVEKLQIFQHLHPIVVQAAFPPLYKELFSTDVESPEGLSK
# About 17,000 (5.5%) of roughly 310,000 compounds were called active. Inconclusive results, whose numbers are uncertain, are shown with a selection of clear calls. Calls come from the whole dose curve; as a rule, active = well fitted inhibition curve with a large enough effect; inconclusive = small, poorly fitted or top-dose-only effect, or effect the other way; inactive = no such curve, though single readings can be large or run the other way. Where the call is inconclusive, the potency comes from a doubtful curve fit.
# Molecular target: Nuclear receptor ROR-gamma (Mus musculus) (UniProt P51450)
# Experiment: qHTS for inhibitors of ROR gamma transcriptional activity; note: nearly all actives have a fitted effect of over 60% in size
# Settings: Drosophila S2 Gal4-RORgamma UAS-luciferase reporter, 20 h; activity change, negative = inhibition: at 53.6 µM (top of the series)
# Outline: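 Using a luciferase readout, inhibitors were identified by reduced reporter activity in Drosophila cells coexpressing a copper-inducible Gal4–ROR gamma fusion and UAS-driven Photinus luciferase, incubated 20 hr after 700 uM copper sulfate.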
# % is set by controls: 0 for no effect and ±100 for the full control effect; potency is the fitted concentration of half-maximal effect.
Compound,Potency,"activity change, negative = inhibition"
CC(=O)NC12CC3CC(C1)CC(C(=O)OCC(=O)Nc1ncc(Cl)c(C)c1Cl)(C3)C2,inactive,–
Cc1ccc(NC(=O)CN2CCCN(S(=O)(=O)c3ccc(Br)s3)CC2)cc1,inactive,–
COc1ccc(CN2CCN(C(=O)CCC(=O)Nc3nnc(C(F)(F)F)s3)CC2)cc1F,"inconclusive: 35.5 µM [activator, single point]",–
COc1ccc(-c2csc(CCn3nc(C)cc3C)n2)cc1,active: 10 µM,–
S=C(NCCNC(=S)Nc1ccccc1Cl)Nc1ccccc1Cl,"inconclusive: 11.2 µM [inhibitor, single point]",–
CCOc1ccc(-c2nnc(NC(=O)C3CCCC3)o2)cc1,active: 8.91 µM,–
COc1ccc(-c2nn(-c3ccccc3)cc2/C=C/C(=O)OCC(=O)Nc2ccc(C#N)cc2)cc1,"inconclusive: 11.2 µM [activator, partial curve]",–
CNNC(=S)Nc1ccc(Cl)cc1,"inconclusive: 35.5 µM [inhibitor, single point]",–
COCCN1C(=O)/C(=C/c2cc3c(cc2Br)OCO3)NC1=S,active: 11.2 µM,–
Cc1nc(CS(=O)(=O)c2ccc(Cl)cc2)cc(Sc2ccc(Cl)cc2)n1,"inconclusive: 6.31 µM [activator, single point]",–
O=C(N1CCOCC1)N1CCN(CC(O)COc2ccc3ccccc3c2)CC1 (centres undefined),"inconclusive: 1.26 µM [inhibitor, partial curve, poor fit]",–
O=C1CC(Sc2ccc(Cl)cc2)C(=O)N1c1ccc2c(c1)OCCO2 (centres undefined),"inconclusive: 35.5 µM [inhibitor, single point]",–
O=C(NCC1CCCO1)c1cc2c([nH]c3ccccc32)c(-c2cccc(Cl)c2)n1 (centres undefined),"inconclusive: 31.6 µM [activator, single point]",–
C=CCN1C(=O)/C(=C/c2ccc(OC(C)=O)c(OCC)c2[N+](=O)[O-])SC1=S,"inconclusive: 5.62 µM [inhibitor, single point]",–
COc1ccccc1-c1nnc(NC(=O)C(C)SC2=NCCS2)s1 (centres undefined),active: 12.6 µM,–
C[C@H](NC(=O)c1nc[nH]c1C(=O)NCC(=O)OCc1ccccc1)C(=O)OCc1ccccc1,"inconclusive: 5.01 µM [inhibitor, partial curve]",–
CC(C)C(C)/C=C/C(C)C1CCC2C3=CC=C4CC(O)CCC4(C)C3CCC21C (centres undefined),inactive,–
COCCn1nnnc1C(c1ccc(C)cc1)N1CCN(Cc2ccc3c(c2)OCO3)CC1 (centres undefined),"inconclusive: 2.82 µM [inhibitor, single point]",–
COc1cc(/C=N/NC(=O)c2ccc(CN(C)S(=O)(=O)c3ccc(C)cc3)cc2)ccc1O,"inconclusive: 22.4 µM [inhibitor, single point]",–
O=C(Sc1nnnn1C1CCCCC1)c1cccs1,"inconclusive: 35.5 µM [inhibitor, single point]",–
O=C(Nc1ccc(-c2nc3ccccc3[nH]2)cc1)c1ccccc1NS(=O)(=O)c1ccc(F)cc1,inactive,–
CCOC(=O)c1c(NC(=O)CSc2nc3ccccc3s2)sc(C(C)=O)c1C,inactive,–
CCOc1ccc(N=C2NC(=O)CS2)cc1,inactive,–
CNC(=O)c1[nH]cnc1C(=O)Nc1ccc(F)cc1,active: 12.6 µM,–
CC(=O)N1CCCc2cc(S(=O)(=O)NCc3ccc(C)cc3)ccc21,inactive,–

# Look-ups from the entries so far.
# COc1cc(/C=N/NC(=O)c2ccc(CN(C)S(=O)(=O)c3ccc(C)cc3)cc2)ccc1O – Potency: inconclusive: 22.4 µM [inhibitor, single point]
# COc1ccc(-c2csc(CCn3nc(C)cc3C)n2)cc1 – Potency: active: 10 µM

# Carrying on.

Compound,Potency,"activity change, negative = inhibition"
CSc1ccc(/C=C/c2cc(=O)c3ccccc3[nH]2)cc1,"inconclusive: 12.6 µM [activator, partial curve, poor fit]",–
Cc1ccc(NC(=O)c2c(-c3c(F)cccc3Cl)noc2C)cc1F,"inconclusive: 7.08 µM [activator, single point]",–
CCCn1c(NC(=O)c2ccc(Br)cc2)nc2ccccc21,active: 1 µM,–
COc1ccc(-c2cc(C(=O)Nc3cc(C)on3)no2)cc1OC,inactive,–
O=C(NC(=S)NCc1ccccc1)c1ccccc1F,active: 10 µM,–
CCOC(=O)c1c(-c2ccccc2)nc2ccc(C)cn12,"inconclusive: 11.2 µM [inhibitor, partial curve, poor fit]",–
O=C(CCN1C(=O)COc2ccccc21)NCc1cccs1,inactive,–
CCOC(=O)N1CCN(c2c(NCc3ccc(F)cc3)c(=O)c2=O)CC1,inactive,–
COc1cc(/C=N/NC(=S)NCCc2ccccc2)cc(OC)c1OC,active: 12.6 µM,–
COc1cc(S(=O)(=O)Nc2ccc(C)cc2)ccc1N=Cc1c(C)[nH]n(-c2ccccc2)c1=O,"inconclusive: 5.01 µM [activator, single point]",–
CCN1C(=O)C(CC(=O)Nc2ccc(OC)cc2)N(Cc2ccc3c(c2)OCO3)C1=S (centres undefined),–,inactive: -5.16% [at 10 µM]
CCCC(=O)c1cc(O)c(O)cc1O,inactive,–
COc1ccccc1C(=O)Nc1ccc(C(=O)N2CCCCC2)cc1,inactive,–
O=c1oc2ccccc2c(NC(c2ccccc2)c2ccccc2)c1[N+](=O)[O-],"inconclusive: 25.1 µM [activator, single point]",–
COc1ccc2[nH]c(C)c(CCN(Cc3cccs3)C(=S)Nc3cccc(F)c3)c2c1,active: 1.58 µM,–
CC(C)=CC/C=C1\CCC(C(=O)O)C(C(=O)O)C1 (centres undefined),inactive,–
O=C1/C(=C/c2ccc([N+](=O)[O-])cc2)Oc2cc(O)ccc21,"inconclusive: 8.91 µM [activator, partial curve]",–
COc1ccc(/C=N/NC(=S)NCCc2ccccc2)cc1,active: 3.55 µM,–
O=C(CSc1nc2ccccc2[nH]1)Nc1ccc2c(c1)OCCO2,"inconclusive: 3.16 µM [activator, full curve, poor fit]",–
COCCCC1CCN(C(=O)C2CCC(=O)N(Cc3ccccc3F)C2)CC1 (centres undefined),inactive,–
Cc1n[nH]c(C)c1S(=O)(=O)N1CCCC(C(=O)NCC2COc3ccccc3O2)C1 (centres undefined),"inconclusive: 10 µM [activator, partial curve]",–
O=C(Nc1ncnc2sc3c(c12)CCCCC3)c1ccccc1,active: 11.2 µM,–
Cc1cc(N2CCOCC2)nc2cc(O)ccc12,"inconclusive: 0.126 µM [activator, single point]",–
C[C@@]12C(=O)N(Cc3ccc(-c4ccccc4)cc3)CC(=O)N1[C@H](/C=C/c1ccccc1)[C@@H]1C(=O)N(c3ccccc3)C(=O)[C@@H]12,"inconclusive: 31.6 µM [activator, single point]",–
